# This is one part of the list.
# Target: T1, OsSMF1 (Oryza sativa, UniProt Q6ZLB0 1-436)
# T1 sequence: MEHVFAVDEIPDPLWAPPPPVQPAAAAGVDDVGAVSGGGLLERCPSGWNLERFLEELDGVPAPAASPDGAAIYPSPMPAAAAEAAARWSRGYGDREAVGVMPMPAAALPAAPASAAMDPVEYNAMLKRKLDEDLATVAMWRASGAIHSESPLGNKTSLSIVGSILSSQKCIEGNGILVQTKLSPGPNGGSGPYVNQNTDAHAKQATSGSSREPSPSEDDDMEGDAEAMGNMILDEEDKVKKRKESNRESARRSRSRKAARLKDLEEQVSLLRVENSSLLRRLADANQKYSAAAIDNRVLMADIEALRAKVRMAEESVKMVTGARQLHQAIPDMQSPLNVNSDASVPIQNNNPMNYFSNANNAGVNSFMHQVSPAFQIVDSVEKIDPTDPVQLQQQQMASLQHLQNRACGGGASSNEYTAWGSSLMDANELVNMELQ
# Test: protein-binding microarray (RPBM); PBS, 2% BSA, 51.3 ng/ul salmon testes DNA, 50 uM zinc acetate, 200 nM TF, 25 C, 1 h; high values mean tight binding
# Conditions: protein: recombinant; tags: N-terminal polyhistidine and DsRed monomer fusion (pET32a); chain copies: 2; label: CyDye5-dUTP incorporated in the synthesized complementary strand; 3' TTTTT single-stranded linker to array surface; dsDNA, one strand shown
# Summary of the method: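 Using Ni–NTA, transcription factors fused N-terminally to polyhistidine and DsRed were purified after expression in E. coli BL21-CodonPlus. These were incubated at 200 nM with a blocked, double-stranded custom Agilent array for 1 h at 25 °C in a buffer containing 50 µM zinc acetate, and the array was washed. The binding signal is per-feature fluorescence intensity (arbitrary units) on an Axon 4000B scanner.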
row,Sequence,binding signal
1,GGAGGCGGCGGCGACGAGGAGGGGCGTGGGCGGCGGCGGCCGGAGTCACCTAGTGCAG,3660 fluorescence intensity (a.u.)
2,GACATTGGTGTATGATTCATGGTGGTCCCCTACCTCGCCCCGGAGTCACCTAGTGCAG,3160 fluorescence intensity (a.u.)
3,GCGCCGCGGTGGAGGCGAGTGGGCGACACGTGGGAAGTGGCGGAGTCACCTAGTGCAG,6610 fluorescence intensity (a.u.)
4,TTTGTCCTCACTTCTGGGGCCCCACCTGTCACCTGACAGGCGGAGTCACCTAGTGCAG,36000 fluorescence intensity (a.u.)
5,CTTGGATGAGCCGCTCTTTTATGAAACAACTCCACGTGTACGGAGTCACCTAGTGCAG,9940 fluorescence intensity (a.u.)
6,AGAGACGAGGCGGAGCTGGTTGGCATCGACGAGGCAAGCGCGGAGTCACCTAGTGCAG,3590 fluorescence intensity (a.u.)
7,AAGACTAGACAATATCGACAGAAAATGGTAAGCCTGGTTTCGGAGTCACCTAGTGCAG,4710 fluorescence intensity (a.u.)
8,CGTGTTGCAAACTTCTGACTGTAGTACTGTACGACAACAACGGAGTCACCTAGTGCAG,3680 fluorescence intensity (a.u.)
9,ACGCGCAGCCACGATCGCTCGCTCGTTGGGTCGGTGACGTCGGAGTCACCTAGTGCAG,3730 fluorescence intensity (a.u.)
10,GTGTGTGGTGTGGTGGTCCTCGCGCGCAATTGCTTTCCGTCGGAGTCACCTAGTGCAG,4140 fluorescence intensity (a.u.)
11,CAATTAATTAAGTACGTGGACGTACTGTCTTAATTGAACGCGGAGTCACCTAGTGCAG,3760 fluorescence intensity (a.u.)
12,ACACCATAGAACAGTTAATCACATACGTGTGTTAATGTCGCGGAGTCACCTAGTGCAG,4350 fluorescence intensity (a.u.)
13,CGGATTCGCCACAGATCTCTCGCCCCACGTCGCCGCCCTCCGGAGTCACCTAGTGCAG,5040 fluorescence intensity (a.u.)
14,TTTTGTTGACAGCTAGCGTCAGGTTTATCTACTCGTCGTCCGGAGTCACCTAGTGCAG,3740 fluorescence intensity (a.u.)
15,TCATCTATAAAAGAGCCCCTCTTCCCAAGCCTCAATTCCCCGGAGTCACCTAGTGCAG,16200 fluorescence intensity (a.u.)
16,ACTAAAGTTTACTCACTGCATTGCAAATATGCAGCTTGCACGGAGTCACCTAGTGCAG,39000 fluorescence intensity (a.u.)
17,CCAGTGTCAAGCCCAGATGCGGTGGTGGCCCATCATTAGCCGGAGTCACCTAGTGCAG,3190 fluorescence intensity (a.u.)
18,CGGCCGCCGCGACACCCGCCGCCACGTCGCCCCGCCACGCCGGAGTCACCTAGTGCAG,9460 fluorescence intensity (a.u.)
19,AGAGGGCGCTGACGTGTGGGCCCCACATAAAATTCTTCCGCGGAGTCACCTAGTGCAG,11300 fluorescence intensity (a.u.)
20,ATATTCACCACGTCGTCTTCCTCGTCGTCGCCGCTCTATACGGAGTCACCTAGTGCAG,5040 fluorescence intensity (a.u.)
21,CTGGTTCTGCTGAGGCTGACGTGGCGGCGGGTGGGGCCCACGGAGTCACCTAGTGCAG,15200 fluorescence intensity (a.u.)

# Rewritten with tabs: entries from further up
row	Sequence	binding signal
5	CTTGGATGAGCCGCTCTTTTATGAAACAACTCCACGTGTACGGAGTCACCTAGTGCAG	9940 fluorescence intensity (a.u.)
6	AGAGACGAGGCGGAGCTGGTTGGCATCGACGAGGCAAGCGCGGAGTCACCTAGTGCAG	3590 fluorescence intensity (a.u.)

# (continued)

row,Sequence,binding signal
1,CCCATCGGACGACTCAAGTGCAGCCACGTACGCAAAACGCCGGAGTCACCTAGTGCAG,14100 fluorescence intensity (a.u.)
2,TGTGGGATATTGTTCCGAAGATTTGATTATAATGAATCCACGGAGTCACCTAGTGCAG,28600 fluorescence intensity (a.u.)
3,AATGTTGACTCCAGGCAATCAGCGTGGCCGCGTCACAGCACGGAGTCACCTAGTGCAG,3380 fluorescence intensity (a.u.)
4,GTCCCTAACATGTGGGTACACCTGTTGACTCGGCAAATCACGGAGTCACCTAGTGCAG,3990 fluorescence intensity (a.u.)
5,GTTTTCTTTGTTGTCATCATCCTTGCTGGACTCGTCCTTACGGAGTCACCTAGTGCAG,5810 fluorescence intensity (a.u.)
6,AGGTGGGCAATGGCATCCGAGTCACCAAGTGGGGCCCACCCGGAGTCACCTAGTGCAG,7750 fluorescence intensity (a.u.)
7,GAGATTTTCCACCGTGGCTGTGTGTAGGCCCAGTGATGTGCGGAGTCACCTAGTGCAG,12300 fluorescence intensity (a.u.)
8,CGGCCTGCGTCTGCGTGGCTGCGCCGTGCCGCCGTCGCGCCGGAGTCACCTAGTGCAG,4370 fluorescence intensity (a.u.)
9,CGAGCCGGAGACTCTGGCGGCGGCGTCGCGCGTTCGAGGACGGAGTCACCTAGTGCAG,5840 fluorescence intensity (a.u.)
10,GGCATGTACAACAAGACCTGGGTACGTTAATTAATTACTCCGGAGTCACCTAGTGCAG,3170 fluorescence intensity (a.u.)
11,AGATGTAGTTAGGAGTCTGACTTTTATCTCAAGTTAGCATCGGAGTCACCTAGTGCAG,29500 fluorescence intensity (a.u.)
12,TCTCGCCTACCACCAAGCTCATCTCGTTTCGTTAGCTACCCGGAGTCACCTAGTGCAG,41600 fluorescence intensity (a.u.)
13,TTAGATAGAGCCACGTGGCGGCCTATGAGCGTTTCTAGGACGGAGTCACCTAGTGCAG,13800 fluorescence intensity (a.u.)
14,TTCAACTGACTAGACTTGGTCTCTCTCTCTCGCCCTGCCCCGGAGTCACCTAGTGCAG,3450 fluorescence intensity (a.u.)
15,TTGTTGGGTGGGGACGTGGGGTGGGGTTCATGGAGTGGTTCGGAGTCACCTAGTGCAG,6530 fluorescence intensity (a.u.)
16,GCGGCCGGCGGCGAGGTCGCGGACGGGGAGGTGGGGCGCGCGGAGTCACCTAGTGCAG,3600 fluorescence intensity (a.u.)
17,GTGGACAAGGCCCACCGGGGACACGCGGCCCCAGCCCGCACGGAGTCACCTAGTGCAG,4310 fluorescence intensity (a.u.)
18,CAACTGCAATTTGTGCAAATACACAGTCACACTCATCTCCCGGAGTCACCTAGTGCAG,4400 fluorescence intensity (a.u.)
19,AAATAACATCACAGTTCGCTATCGTCATCCTATTCCTAGGCGGAGTCACCTAGTGCAG,5990 fluorescence intensity (a.u.)
20,GCTAATTTGACTCGGTTTTCATCTGACGTGGCATTGACGTCGGAGTCACCTAGTGCAG,41400 fluorescence intensity (a.u.)
21,ATCATCCTGGATCCCCGTCACGCGAACGGGTTAGCTAAGCCGGAGTCACCTAGTGCAG,5860 fluorescence intensity (a.u.)

# — PMC7819943, “Rice protein-binding microarrays: a tool to detect cis-acting elements near promoter regions in rice”
